PMC5098186, “Nuclear import of dimerized ribosomal protein Rps3 in complex with its chaperone Yar1” (Scientific Reports, 2016)

The chains behind the UniProt entries cited, without tags or fusion partners.
UniProt Q02821: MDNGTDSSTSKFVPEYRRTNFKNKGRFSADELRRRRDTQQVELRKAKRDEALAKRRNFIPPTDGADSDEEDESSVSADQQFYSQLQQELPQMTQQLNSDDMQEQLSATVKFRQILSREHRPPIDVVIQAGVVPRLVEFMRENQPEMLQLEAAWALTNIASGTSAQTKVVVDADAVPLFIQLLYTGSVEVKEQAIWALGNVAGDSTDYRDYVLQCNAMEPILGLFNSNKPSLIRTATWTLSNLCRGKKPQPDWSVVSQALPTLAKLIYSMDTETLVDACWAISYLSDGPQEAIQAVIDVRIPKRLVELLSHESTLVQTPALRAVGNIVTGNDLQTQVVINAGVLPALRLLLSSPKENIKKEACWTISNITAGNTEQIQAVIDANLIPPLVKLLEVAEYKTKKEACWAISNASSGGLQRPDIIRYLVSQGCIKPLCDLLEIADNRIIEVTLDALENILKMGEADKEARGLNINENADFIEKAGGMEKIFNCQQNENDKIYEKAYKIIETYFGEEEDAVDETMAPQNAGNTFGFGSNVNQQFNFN

Biological target: T1, Rps3-TAP (S. cerevisiae) (UniProt P05750)
T1 sequence: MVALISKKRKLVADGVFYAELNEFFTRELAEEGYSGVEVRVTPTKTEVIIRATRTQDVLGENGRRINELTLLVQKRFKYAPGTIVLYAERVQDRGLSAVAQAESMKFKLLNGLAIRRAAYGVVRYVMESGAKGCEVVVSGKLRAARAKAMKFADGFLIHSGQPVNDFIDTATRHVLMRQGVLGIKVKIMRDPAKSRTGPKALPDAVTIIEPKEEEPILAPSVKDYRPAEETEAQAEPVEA
Assay: affinity purification with mass spectrometry; TAP purification from yeast lysate; excised gel bands of the final eluate digested with trypsin and analysed by LC-MS/MS

binding: binds
Molecule: Kap60-3xHA (from UniProt Q02821 1-542)

binding: binds
B1: Kap123 (protein, UniProt P40069 1-1113)
chain: MDQQFLSQLEQTLHAITSGVGLKEATKTLQTQFYTQPTTLPALIHILQNGSDDSLKQLAGVEARKLVSKHWNAIDESTRASIKTSLLQTAFSEPKENVRHSNARVIASIGTEELDGNKWPDLVPNLIQTASGEDVQTRQTAIFILFSLLEDFTSSLSGHIDDFLALFSQTINDPSSLEIRSLSAQALNHVSALIEEQETINPVQAQKFAASIPSVVNVLDAVIKADDTMNAKLIFNCLNDFLLLDSQLTGNFIVDLIKLSLQIAVNSEIDEDVRVFALQFIISSLSYRKSKVSQSKLGPEITVAALKVACEEIDVDDELNNEDETGENEENTPSSSAIRLLAFASSELPPSQVASVIVEHIPAMLQSANVFERRAILLAISVAVTGSPDYILSQFDKIIPATINGLKDTEPIVKLAALKCIHQLTTDLQDEVAKFHEEYLPLIIDIIDSAKNIVIYNYATVALDGLLEFIAYDAIAKYLDPLMNKLFYMLESNESSKLRCAVVSAIGSAAFAAGSAFIPYFKTSVHYLEKFIQNCSQIEGMSEDDIELRANTFENISTMARAVRSDAFAEFAEPLVNSAYEAIKTDSARLRESGYAFIANLAKVYGENFAPFLKTILPEIFKTLELDEYQFNFDGDAEDLAAFADSANEEELQNKFTVNTGISYEKEVASAALSELALGTKEHFLPYVEQSLKVLNEQVDESYGLRETALNTIWNVVKSVLLASKVEPESYPKGIPASSYVNADVLAVIQAARETSMGNLSDEFETSMVITVMEDFANMIKQFGAIIIMDNGDSSMLEALCMQVLSVLKGTHTCQTIDIEEDVPRDEELDASETEATLQDVALEVLVSLSQALAGDFAKVFDNFRPVVFGLFQSKSKNKRSSAVGAASELALGMKEQNPFVHEMLEALVIRLTSDKSLEVRGNAAYGVGLLCEYASMDISAVYEPVLKALYELLSAADQKALAAEDDEATREIIDRAYANASGCVARMALKNSALVPLEQTVPALLAHLPLNTGFEEYNPIFELIMKLYQENSPVITNETPRIIEIFSAVFTKENDRIKLEKESTLGREENMERLKQFQTEEMKHKVIELLKYLNTTYNGIVAQNPVLAAVIA

These are yes or no findings as the source states them, for the method shown. In cells and extracts the contact can be indirect. These calls come from enrichment with a bait or labelling near it, and not all partners need be listed. Each block holds one molecule with its values, some of them ahead of it.
